Measurements from patent US9491941B2, “(Hetero) arylacrylamides for the control of ectoparasites” (Novartis Tiergesundheit AG, priority 2012, dated 2016).
Some of these results come from one statement about several compounds together. For at least one compound, name, drawing or mass did not settle the structure.

Assays:
[1] = tested on: Rhipicephalus sanguineus nymphs; assay: Activity in vivo against Rhipicephalus sanguineus nymphs on Mongolian gerbils (per oral application); settings: engorged nymphs counted seven days after infestation
[2] = tested on: Ctenocephalides felis (cat flea); assay: Activity in vivo against Ctenocephalides felis on Mongolian gerbils (per oral application); settings: live fleas counted after 48 h infestation
[3] = tested on: Polyplax serrata (lice); assay: Activity in vivo against lice (Polyplax serrata) in mice (topical); settings: spray or pour-on, naturally infected mice, live lice counted on day +4 and +14

Row | SMILES | efficacy (EC90), Henderson & Tilton formula ([3]; at 10 mg/kg) | efficacy (EC80) vs placebo, Abbot's formula ([2]; at 10 mg/kg oral gavage) | efficacy (EC90), Henderson & Tilton formula ([3]; at 3.2 mg/kg) | other results
1 | O=C(/C=C/c1ccc(C(=O)NCC2CC2)c2ccccc12)NC(c1cccc(C(F)(F)F)c1)C(F)(F)F (centres unmarked) [Example 1.1, N-(cyclopropylmethyl)-4-[(1E)-2-({2,2,2-trifluoro-1-[3-(trifluoromethyl)phenyl]ethyl}carbamoyl)eth-1-en-1-yl]naphthalene-1-carboxamide] | more than 80% |  |  | efficacy (EC90), tick number reduction vs placebo, Abbot's formula ([1]; at 10 mg/kg oral gavage): more than 90%; efficacy (EC80) vs placebo, Abbot's formula ([2]; at 32 mg/kg oral gavage): more than 80%
2 | O=C(/C=C/c1ccc(C(=O)NC2CC2)c2ccccc12)NC(c1cccc(C(F)(F)F)c1)C(F)(F)F (centres unmarked) [Example 1.5] | more than 80% |  |  | efficacy (EC80) vs placebo, Abbot's formula ([2]; at 32 mg/kg oral gavage): more than 80%
3 | C#CCNC(=O)c1ccc(/C=C/C(=O)NC(c2cccc(C(F)(F)F)c2)C(F)(F)F)c2ccccc12 (centres unmarked) [Example 1.6] |  |  |  | efficacy (EC80) vs placebo, Abbot's formula ([2]; at 32 mg/kg oral gavage): more than 80%
4 | O=C(/C=C/c1ccc(C(=O)NCC(F)F)c2ccccc12)NC(c1cccc(C(F)(F)F)c1)C(F)(F)F (centres unmarked) [Example 1.12] |  | more than 80% | more than 80% | 
5 | O=C(/C=C/c1ccc(C(=O)NC2CCOCC2)c2ccccc12)NC(c1cccc(C(F)(F)F)c1)C(F)(F)F (centres unmarked) [Example 1.14] | more than 80% |  |  | 
6 | CC(C)CNC(=O)c1ccc(/C=C/C(=O)NC(c2cccc(C(F)(F)F)c2)C(F)(F)F)c2ccccc12 (centres unmarked) [Example 1.15] |  |  | more than 80% | 
7 | O=C(/C=C/c1ccc(C(=O)N2CCCC2)c2ccccc12)NC(c1cccc(C(F)(F)F)c1)C(F)(F)F (centres unmarked) [Example 1.18] | more than 80% |  |  | 
8 | O=C(/C=C/c1ccc(C(=O)N2CCC2)c2ccccc12)NC(c1cccc(C(F)(F)F)c1)C(F)(F)F (centres unmarked) [Example 1.25] | more than 80% |  |  | 
9 | O=C(/C=C/c1ccc(C(=O)NC2CCC2)c2ccccc12)NC(c1cccc(C(F)(F)F)c1)C(F)(F)F (centres unmarked) [Example 1.29] |  |  | more than 80% | 
10 | CCN1OCC(NC(=O)c2ccc(/C=C/C(=O)NC(c3cccc(C(F)(F)F)c3)C(F)(F)F)c3ccccc23)C1=O (centres unmarked) [Example 1.34] |  |  |  | efficacy (EC90), tick number reduction vs placebo, Abbot's formula ([1]; at 32 mg/kg oral gavage): more than 90%
11 | O=C(/C=C/c1ccc(C(=O)NC2CC(F)(F)C2)c2ccccc12)NC(c1cccc(C(F)(F)F)c1)C(F)(F)F (centres unmarked) [Example 1.35] |  | more than 80% | more than 80% | efficacy (EC90), tick number reduction vs placebo, Abbot's formula ([1]; at 32 mg/kg oral gavage): more than 90%
12 | O=C(/C=C/c1ccc(C(=O)NC2CC(F)C2)c2ccccc12)NC(c1cccc(C(F)(F)F)c1)C(F)(F)F (centres unmarked) [Example 1.36] |  | more than 80% | more than 80% | efficacy (EC90), tick number reduction vs placebo, Abbot's formula ([1]; at 32 mg/kg oral gavage): more than 90%
13 | O=C(C=Cc1ccc(C(=O)NC2CC2F)c2ccccc12)NC(c1cccc(C(F)(F)F)c1)C(F)(F)F (centres unmarked) [Example 1.40] |  | more than 80% | more than 80% | efficacy (EC90), tick number reduction vs placebo, Abbot's formula ([1]; at 10 mg/kg oral gavage): more than 90%
